# Primary screen of a compound library

The values are deposited in ChEMBL (CHEMBL3988442, “University of Dundee, Small-Polar-MMV Screening Library” (2021)).

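Viability assay of Plasmodium falciparum sporozoites; the read-out is not stated. The concentration is filed as 10 mM, unlikely as a test dose, so the dose is not known. The record gives no direction; compounds that gave an IC50 in retests scored well above the rest, so higher reads as lower viability. Strong results were mostly tested again. About 34,000 compounds were tested under these conditions; 0.84% (about 280) showed 50% or more at least once.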

Results are given as percent effect.
How 0% and 100% were set is not recorded. Most values in the screen are low, and negative values occur.
Compounds were drawn at random from those tested, without regard to their results.
Two or more numbers in one place are separate tests of the same structure; such repeats can differ widely.

For Cc1ccc(CN2CC3(CCN(S(=O)(=O)c4ccccc4)C3)C2)o1 the result was 19.16%.
For CN(C)S(=O)(=O)N1CCCC(c2cccc(Cc3ccccc3F)n2)C1 (stereo not drawn) the result was -0.6695%.
For Cc1c(S(=O)(=O)N2CCCCC2c2nnc(-c3cccs3)o2)cnn1C (stereo not drawn) the result was 0.8417%.
For CC(C)NC(=O)c1cc(Br)c2c(c1)OCCO2 the result was 8.281%.
For Cc1cc2c(=O)n3c(nc2s1)CCN(Cc1cnc(C)n1C)CC3.Cl the result was 3.991%.
For O=C(N[C@]12CC1CN(C(=O)c1ccco1)C2)c1ccoc1 (stereo partly drawn) the result was 5.304%.
For COCC1Cn2nnc(-c3cnn(C)c3)c2CN1Cc1ccc(C)o1 (stereo not drawn) the result was -22.74%.
For O=C1C(N2CCN(c3ccc(O)cc3)CC2)CCN1C1CCOCC1 (stereo not drawn) the result was 3.003%.
For [H][C@@]12C[C@H](C)O[C@]1([H])CCN(C(=O)CCc1ccccc1)C2 the result was -13.49%.
For CCOc1ccc(CNCc2cccnc2N(C)C)cc1 the result was -11.63%.
For Cc1cccc(C)c1Nc1noc2c1CN(C(=O)c1ccnn1C)CC2 the result was 3.144%.
For COc1cc(I)c(Cl)cc1C(=O)N(C)CC(C)(C)O the result was -4.269%.
For O=C(O)C(F)(F)F.O=C(O)C(F)(F)F.[H][C@@]12CCCO[C@]1([H])[C@H](N(C)Cc1cccnc1)CN2C(=O)c1ccoc1 the result was 20.4%.
For Cn1cncc1CN1CCOC(Cc2ccccc2)C1 (stereo not drawn) the result was 14.01%.
For c1cnc2[nH]c(C3CCCC3)c(CN3CCCCC3)c2c1 the result was 2.224%.
For CCn1c(C)nc2cc(NC(=O)CC3CCN(S(C)(=O)=O)CC3)ccc21 the result was 4.173% and 2.818% and 15.29%.
For O=C(CN1CCNC1=O)NCc1ccc2sccc2c1 the result was -3.372%.
For CCc1nc(CN2CCN(C(=O)C3CCCCC3)CC2)cs1 the result was 5.958%.
For CC(C)N1CCCCC1CCn1cnc2cc(C(F)(F)F)ccc2c1=O (stereo not drawn) the result was -8.15%.
For Cl.O=C(NCc1ccccc1F)C1=NOC2(CCNC2)C1 (stereo not drawn) the result was -3.163%.
For O=C(NCc1ccc2c(c1)OCO2)Nc1cccnc1N1CCCC1 the result was 19.64%.
For Cc1nnn2c1COCC(CNC(=O)c1ccc[nH]1)C2 (stereo not drawn) the result was -10.22%.
For C1CCC(CN2Cc3nnn(CC4CC4)c3C(COCC3CC3)C2)C1.O=C(O)C(F)(F)F (stereo not drawn) the result was 12.48%.
For CCCN1CCCCC1C(=O)Nc1ccc(-c2nnc[nH]2)cc1 (stereo not drawn) the result was 6.91%.
For CC(Cn1cccn1)n1cnc2cccc(Cl)c2c1=O (stereo not drawn) the result was 2.308%.
For Cn1ccc(C(=O)N2CCCC2c2cc(CCO)[nH]n2)n1 (stereo not drawn) the result was 10.59%.
For CC(C)COc1cccc(-c2nc3c([nH]2)CCNC3)c1 the result was 2.351%.
For O=C(O)C(F)(F)F.O=C(O)C(F)(F)F.O=C1NC2(CCN(Cc3nccs3)CC2)CC1c1ccncc1 (stereo not drawn) the result was -12.42%.
For Nc1nccnc1CC1CCCN(Cc2c[nH]c3ccccc23)C1 (stereo not drawn) the result was -3.005%.
For O=c1cc(N2CCCC2)cnn1CCc1cccc(F)c1 the result was 40.92% and 61.99%.

The first 3 entries again:

For Cc1ccc(CN2CC3(CCN(S(=O)(=O)c4ccccc4)C3)C2)o1 the result was 19.16%.
For CN(C)S(=O)(=O)N1CCCC(c2cccc(Cc3ccccc3F)n2)C1 (stereo not drawn) the result was -0.6695%.
For Cc1c(S(=O)(=O)N2CCCCC2c2nnc(-c3cccs3)o2)cnn1C (stereo not drawn) the result was 0.8417%.